# The other results are listed elsewhere or left out.
# Tested on: T1, CTL2-GFP (C. trachomatis L2/434/Bu, GFP-expressing)
# T1 construct: L2/434/Bu, GFP-expressing
# Set-up: species or system HeLa; Intracellular C. trachomatis growth in HeLa cells, bulk GFP fluorescence relative to DMSO
# Conditions: bulk GFP, single well; 28.5 h, 10 µM; inhibitor
row,SMILES,% of control remaining [%]
1,CNC(=O)CSc1nc2cc(Cl)ccc2c(=O)n1CC1CCCO1 (stereo not shown) [CBK305937],155.759
2,CC(=O)C(C)n1c(=O)c2c(nc3oc(C(C)(C)C)cn32)n(C)c1=O (stereo not shown) [CBK306027],124.593
3,O=C(Nc1ncc(Cc2ccc(F)cc2)s1)C1CCCCC1 [CBK058611],125.351
4,CCCC(=O)Nc1cccc(NC(=O)c2nc[nH]n2)c1 [CBK269604],103.845
5,CC1CCCCC1NC(=O)NC(=O)Cn1nnc2ccccc2c1=O (stereo not shown) [CBK306046],94.3333
6,COc1ccc(-c2nc(-c3cccc(F)c3)cnc2N)cc1OC [CBK063948],154.888
7,COc1cc(Br)c(OC)c(C(=O)N(C)Cc2cnn(C)c2)c1 [CBK244011],138.76
8,COc1cccc(-c2ccc(C(=O)NCc3ccccc3SC)c(N3CCN(C(=O)c4ccco4)CC3)n2)c1 [CBK106025],96.6371
9,O=C(NCC1COc2ccccc2O1)c1ccc(-c2ccc(OC(F)(F)F)cc2)nc1 (stereo not shown) [CBK156214],119.208
10,O=C(c1cncnc1)N1CCc2ccccc21 [CBK200272],77.656
11,O=C1CC(c2ccccc2F)C2=C(COC2=O)N1 (stereo not shown) [CBK086692],99.4195
12,Cc1nn(CC(C)C)c(Cl)c1C(=O)Nc1nc2ccc(F)cc2s1 [CBK252188],102.236
13,COc1ccc(-c2nnc(SCC(=O)Nc3cc(C)on3)n2C2CCCCC2)cc1 [CBK297510],135.733
14,CC(CCN1CCN(Cc2ccccc2)CC1)c1ccccc1 (stereo not shown) [CBK261902],100
15,Cc1ccc2nc(NC(=O)c3cc(C)n(C)n3)sc2c1 [CBK287668],107.281
16,CC(=O)c1c[nH]c(=O)[nH]c1=O [CBK012093],105.843
17,Cc1nc(-c2cc3c(s2)CCN(CC(O)COCc2ccco2)C3)cs1 (stereo not shown) [CBK304460],143.642
18,CCOC(=O)COc1ccc(S(=O)(=O)N2CCN(Cc3ccc4c(c3)OCO4)CC2)cc1 [CBK074492],136.49
19,CCN(Cc1ccncc1)C(=O)NCCc1ccc(OC)cc1 [CBK155149],110.867
20,CN(Cc1ccccc1N1CCCC1)C(=O)Cc1cn2ccsc2n1 [CBK305897],54.5249
21,CN(C)c1nc2n(c(=O)n1)CCS2 [CBK019025],100.905
22,N=C(N)SCc1ccc(CSC(=N)N)cc1 [CBK278309C],100
23,COC(=O)[C@@H]1Cc2ncn(C(C)C)c2CN1C(=O)C1CCCCC1 [CBK288989],144.182
24,Cc1c(C(C)NCC(C)(C)N(C)C)cnn1-c1ccc(C#N)cc1 (stereo not shown) [CBK306447],89.0244
25,CCC1(C)Cc2sc3[nH]c(=O)c(SCC(N)=O)nc3c2CO1 (stereo not shown) [CBK020581],115.166
26,OC(COCc1ccco1)CN1CCc2sccc2C1C1CC1 (stereo not shown) [CBK305167],87.7969
27,Cc1c(C)n(Cc2ccco2)c2ncnc(NCCCC(=O)O)c12 [CBK307562],121.836

row,SMILES,% of control remaining [%]
1,COc1ccc(N(CC(=O)N2CCN(C)CC2)S(=O)(=O)c2ccc(C)c([N+](=O)[O-])c2)cc1 [CBK264051],100
2,CC(=O)Nc1cccc(-n2cnnc2SCC2CCOCC2)c1 [CBK306354],141.964
3,CCOc1ccc(-c2csc(NC(=O)CC)n2)cc1 [CBK287764],89.4704
4,COC(=O)c1c(NC(=S)Nc2cccc(S(=O)(=O)N3CCOCC3)c2)sc2c1CCC2 [CBK267054],149.368
5,Cc1cc(COC(=O)Nc2ccc3nc(C)ccc3c2)cc(C)n1 [CBK200127],119.999
6,Cc1cc(S(=O)(=O)NC(=O)CC2CCOc3ccccc32)c(C)o1 (stereo not shown) [CBK304499],113.573
7,CC(C)c1ccc(/C=C/C(=O)NCc2ccc(C#N)cc2)cc1 [CBK149642],100
8,COC(=O)CN1C(=O)N2CCCN=C2c2ccc(Cl)cc21 [CBK284402],108.214
9,O=C(O)c1ccccc1C(=O)Nc1c(-c2ccccc2)nc2ccccn12 [CBK287041],115.146
10,CC(C)Nc1nc2cc(Cl)c(Cl)cc2nc1OCc1cccnc1 [CBK115743],117.02
11,COc1cccc2ncn(C(C)c3nc(C)sc3C)c(=O)c12 (stereo not shown) [CBK306570],112.446
12,COc1cc(CN2CCN(c3ccccn3)CC2)ccc1OCc1ccccc1 [CBK261906],116.355
13,Cc1ccc2cc(CN(Cc3ccc(N(C)C)cc3)C(=O)NC3CCCCC3)c(=O)[nH]c2c1C [CBK132070],58.3918
14,CCCc1ccc(S(=O)(=O)N2CCN(Cc3ccc4c(c3)OCO4)CC2)cc1 [CBK074735],99.4912
15,CNCS(=O)(=O)C(F)(F)S(=O)(=O)N(C)C [CBK018820],153.564
16,Cc1cccc(CNc2nccnc2-c2cccs2)c1 [CBK036808],98.0282
17,Cc1nc(C(=O)N2CCC3(CCCCOc4ccccc4C(=O)NCCNC3=O)CC2)co1 [CBK292089],163.495
18,CC(C)CNC(=O)C1CCN(C(=O)c2cccc(F)c2)CC1 [CBK304338],139.591
19,CC(=O)N1CCN(CC(O)Cn2c3ccccc3c3ccccc32)CC1 (stereo not shown) [CBK305588],98.9151
20,CC(=O)N1CCC(O)(C2(C)OC(NC3C4CC5CC(C4)CC3C5)=NC2=O)CC1 (stereo not shown) [CBK138181],116.713
21,Clc1cc2nc(Sc3ccccn3)c(N3CCCC3)nc2cc1Cl [CBK093754],100.947
22,COc1ccc(C(=O)NNC(=O)c2cccc(O)c2)cc1 [CBK262594],85.736
23,COc1ccc(NC(=O)c2cc(C(C)C)n(-c3nc4ccccc4s3)n2)cc1 [CBK287667],122.761
24,CC1(C)Cc2nc(-c3ccccc3)nc(SCC(=O)NCCc3ccccc3)c2CO1 [CBK267205],177.319
25,Cc1ccc(NC(=S)N2CCCC2C(=O)O)c(C)c1 (stereo not shown) [CBK007148],100
26,CN(C)/N=C\c1cccc(O)c1 [CBK015814],151.869
27,CC(=O)Nc1ccc(-c2nc(-c3ccc(-c4ccccc4)cc3)c(-c3ccc(-c4ccccc4)cc3)[nH]2)cc1 [CBK262620],100

# Already shown: entries from further up.
row,SMILES,% of control remaining [%]
24,CC1(C)Cc2nc(-c3ccccc3)nc(SCC(=O)NCCc3ccccc3)c2CO1 [CBK267205],177.319
25,Cc1ccc(NC(=S)N2CCCC2C(=O)O)c(C)c1 (stereo not shown) [CBK007148],100
26,CN(C)/N=C\c1cccc(O)c1 [CBK015814],151.869
27,CC(=O)Nc1ccc(-c2nc(-c3ccc(-c4ccccc4)cc3)c(-c3ccc(-c4ccccc4)cc3)[nH]2)cc1 [CBK262620],100

# The results go on.

row,SMILES,% of control remaining [%]
1,O=C1CC(c2ccco2)CC(=O)C1=CNCCN1CCNCC1 (stereo not shown) [CBK263668],118.057
2,NC(=O)COc1ccc(CNC(=O)CN2CCCCCC2)cc1 [CBK306332],136.956
3,OC1(c2ccc(F)cc2)CC2CCC(C1)N2CC1=CCCOC1 (stereo not shown) [CBK282942],72.4979
4,CCn1c(CC2CCN(c3ncc(C#N)c(N)n3)CC2)nn(C)c1=O [CBK306788],108.012
5,CNC(=O)c1oc(-c2ccc(OC)cc2)c(-c2ccc(OC)cc2)c1C(=O)NC [CBK001956],93.9886
6,Cc1ccc(CSCCNS(=O)(=O)c2cccc([N+](=O)[O-])c2)cc1 [CBK267864],83.596
7,Cc1cccc(C(C)(C)C)c1OCCNCCN [CBK265058G],85.291
8,CCCCCCN(CCN1CCOCC1)C(=O)Nc1cc(C)on1 [CBK305147],82.9275
9,CCCCC(=O)N(C)c1c(CC)nc2c(OCCn3cccc3)cccn12 [CBK147785],176.792
10,Cc1c(C(c2ccc3ccccc3c2)c2c(C)n(C)n(-c3ccccc3)c2=O)c(=O)n(-c2ccccc2)n1C [CBK261692],46.4225
11,Cc1ccccc1Nc1nc(N)nc(CN2CCN(C)CC2)n1 [CBK304217],105.153
12,N#Cc1ccc(CN2CCN(S(=O)(=O)c3ccc(-n4cnc(Cl)c4Cl)cc3)CC2)cc1 [CBK062972],87.8256
13,Cn1nc(C2CCCCC2)cc1[C@H]1CN2CC[C@H]1C[C@@H]2CNC(=O)c1ccco1 [CBK289106],116.731
14,Cc1nc(C)c(-c2csc(Nc3ccc(S(N)(=O)=O)cc3)n2)s1 [CBK263292B],105.527
15,O=[N+]([O-])c1ccc2c(c1)C(N1CCOCC1)/C(=C/C1(O)CCCCC1)O2 (stereo not shown) [CBK263200],111.364
16,O=C(Nc1ccccc1[N+](=O)[O-])c1ccc(Cl)c(S(=O)(=O)N2CCC(C(=O)O)CC2)c1 [CBK265180],112.666
17,CN(CC1COCCO1)C(=O)c1cc(Cn2ccc3ccccc32)[nH]n1 (stereo not shown) [CBK307673],108.208
18,O=S(=O)(c1ccccc1)N1C[C@@H]2CCCCN(CC3CC3)[C@@H]2C1 [CBK285501],120.182
19,CCNc1ncc(C(=O)NC(CCn2ccnc2)c2ccccc2)cn1 (stereo not shown) [CBK307066],125.631
20,COc1ccc(CCNS(=O)(=O)c2cc([N+](=O)[O-])ccc2C)cc1OC [CBK267412],133.406
21,COc1ccccc1-c1nccnc1NCc1ccc(OC(F)(F)F)cc1 [CBK036761],114.798
22,O=C(NCCCn1ccnc1)c1cc2ncc(Br)cn2n1 [CBK277080],139.016
23,COc1ccc([C@@]23CC[C@@H](NC(=O)c4ccc(-c5ccccc5)cc4)CC2N(C)CC3)cc1OC (stereo partly shown) [CBK074973T],42.2307
24,CC(=O)NCc1cccc(-c2cc(CO)cnc2-c2ccc(Cl)cc2)c1 [CBK161445],89.6188
25,Cn1ncc(N2CCC(CNC(=O)Cc3ccc(O)c(Cl)c3)C2)cc1=O (stereo not shown) [CBK307689],116.911
